{"source": "PubChem BioAssay AID652243, Drosophila RNAi Screening Center, 2013", "screen": "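Fly regulators of androgen-dependent reporter output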 (primary screen)", "system": "Drosophila S2R+ cells", "reagent": "long dsRNA against Drosophila genes", "duration": "72 h (48 h, then 24 h hormone)", "challenge": "synthetic androgen R1881 at 10 nM for 24 h", "read-out": "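Per-well raw luminescence of the androgen-driven firefly reporter and of the Renilla control, two replicates each, without normalisation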", "scale": "firefly reporter light: higher = more light from androgen-responsive reporter; Renilla control light: higher = more constitutive control signal (cell number, transfection)", "hit rule": "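Hit when the log firefly-to-Renilla ratio dropped or increased by a fixed fold versus the mean of GFP or LacZ controls across duplicate plates; lowering cut given as 1.5 and as 3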", "calls": "active = hit: reporter lowered or raised; inactive = no hit", "note": "The deposit covers about 24,000 reagents; this is a random part of those that have a named target and a result. Over the whole deposit, 246 (1%) got an active call. 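Plates not normalised; calls are printed but the firefly/Renilla ratio behind them is not deposited; fold cut for lowering reported inconsistently.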 Raw values are not corrected between plates. A number with no mark means an inactive call. Reagents against one gene are numbered here. The record does not give: the amount of reagent."}
{"target": "Semp1", "reagent": 1, "firefly reporter light, replicate 1": 1.57e5, "firefly reporter light, replicate 2": 1.76e5, "Renilla control light, replicate 1": 2.09e6, "Renilla control light, replicate 2": 2.36e6}
{"target": "r", "reagent": 1, "firefly reporter light, replicate 1": 5.29e5, "firefly reporter light, replicate 2": 3.92e5, "Renilla control light, replicate 1": 4.35e6, "Renilla control light, replicate 2": 2.84e6}
{"target": "r", "reagent": 2, "firefly reporter light, replicate 1": 4.25e5, "firefly reporter light, replicate 2": 5.37e5, "Renilla control light, replicate 1": 2.63e6, "Renilla control light, replicate 2": 2.93e6}
{"target": "r", "reagent": 3, "firefly reporter light, replicate 1": 9.55e5, "firefly reporter light, replicate 2": 1.07e6, "Renilla control light, replicate 1": 1.66e6, "Renilla control light, replicate 2": 1.66e6}
{"target": "CheA46a", "reagent": 1, "firefly reporter light, replicate 1": 9.59e5, "firefly reporter light, replicate 2": 9.15e5, "Renilla control light, replicate 1": 2.49e6, "Renilla control light, replicate 2": 1.99e6}
{"target": "CG40498", "reagent": 1, "firefly reporter light, replicate 1": 1.12e6, "firefly reporter light, replicate 2": 6.94e5, "Renilla control light, replicate 1": 2.15e6, "Renilla control light, replicate 2": 1.01e6}
{"target": "CG40498", "reagent": 2, "firefly reporter light, replicate 1": 1.29e6, "firefly reporter light, replicate 2": 9.55e5, "Renilla control light, replicate 1": 2.56e6, "Renilla control light, replicate 2": 1.75e6}
{"target": "firl", "reagent": 1, "firefly reporter light, replicate 1": 3.38e5, "firefly reporter light, replicate 2": 2.67e5, "Renilla control light, replicate 1": 1.57e6, "Renilla control light, replicate 2": 1.78e6}
{"target": "CG12640", "reagent": 1, "firefly reporter light, replicate 1": 4.54e5, "firefly reporter light, replicate 2": 2.60e5, "Renilla control light, replicate 1": 3.08e6, "Renilla control light, replicate 2": 2.18e6}
{"target": "CG12640", "reagent": 2, "firefly reporter light, replicate 1": 2.76e5, "firefly reporter light, replicate 2": 3.05e5, "Renilla control light, replicate 1": 3.18e5, "Renilla control light, replicate 2": 3.48e5}
{"target": "RpL37-1", "reagent": 1, "firefly reporter light, replicate 1": 3.06e5, "firefly reporter light, replicate 2": 2.80e5, "Renilla control light, replicate 1": 2.45e6, "Renilla control light, replicate 2": 1.60e6}
{"target": "RpL37-1", "reagent": 2, "firefly reporter light, replicate 1": 4.34e5, "firefly reporter light, replicate 2": 3.09e5, "Renilla control light, replicate 1": 1.44e6, "Renilla control light, replicate 2": 1.01e6}
{"target": "dpr15", "reagent": 1, "firefly reporter light, replicate 1": 1.59e5, "firefly reporter light, replicate 2": 1.30e5, "Renilla control light, replicate 1": 14565, "Renilla control light, replicate 2": 1.63e5}
{"target": "dpr15", "reagent": 2, "firefly reporter light, replicate 1": 1.23e5, "firefly reporter light, replicate 2": 1.21e5, "Renilla control light, replicate 1": 2.44e6, "Renilla control light, replicate 2": 2.59e6}
{"target": "dpr15", "reagent": 3, "firefly reporter light, replicate 1": 1.25e5, "firefly reporter light, replicate 2": 2.31e5, "Renilla control light, replicate 1": 2.16e6, "Renilla control light, replicate 2": 2.40e6}

Not a retest: 2 of the entries above.
{"target": "Semp1", "reagent": 1, "firefly reporter light, replicate 1": 1.57e5, "firefly reporter light, replicate 2": 1.76e5, "Renilla control light, replicate 1": 2.09e6, "Renilla control light, replicate 2": 2.36e6}
{"target": "r", "reagent": 1, "firefly reporter light, replicate 1": 5.29e5, "firefly reporter light, replicate 2": 3.92e5, "Renilla control light, replicate 1": 4.35e6, "Renilla control light, replicate 2": 2.84e6}

Next results:
{"target": "Daxx", "reagent": 1, "firefly reporter light, replicate 1": 6.05e5, "firefly reporter light, replicate 2": 6.85e5, "Renilla control light, replicate 1": 2.33e6, "Renilla control light, replicate 2": 2.28e6}
{"target": "Daxx", "reagent": 2, "firefly reporter light, replicate 1": 3.65e5, "firefly reporter light, replicate 2": 9.33e5, "Renilla control light, replicate 1": 7.73e5, "Renilla control light, replicate 2": 7.73e5}
{"target": "cact", "reagent": 1, "firefly reporter light, replicate 1": 1.01e6, "firefly reporter light, replicate 2": 1.16e6, "Renilla control light, replicate 1": 1.13e6, "Renilla control light, replicate 2": 1.71e6}
{"target": "cact", "reagent": 2, "firefly reporter light, replicate 1": 4.68e5, "firefly reporter light, replicate 2": 6.93e5, "Renilla control light, replicate 1": 8.99e5, "Renilla control light, replicate 2": 1.31e6}
{"target": "lncRNA:CR9162", "reagent": 1, "firefly reporter light, replicate 1": 6.87e5, "firefly reporter light, replicate 2": 7.72e5, "Renilla control light, replicate 1": 2.45e6, "Renilla control light, replicate 2": 2.42e6}
{"target": "CG15221", "reagent": 1, "firefly reporter light, replicate 1": 4.84e5, "firefly reporter light, replicate 2": 4.38e5, "Renilla control light, replicate 1": 4.78e6, "Renilla control light, replicate 2": 4.35e6}
{"target": "Rh7", "reagent": 1, "firefly reporter light, replicate 1": 8.93e5, "firefly reporter light, replicate 2": 7.29e5, "Renilla control light, replicate 1": 1.34e6, "Renilla control light, replicate 2": 1.18e6}
{"target": "Rh7", "reagent": 2, "firefly reporter light, replicate 1": 3.39e5, "firefly reporter light, replicate 2": 9.52e5, "Renilla control light, replicate 1": 6.21e5, "Renilla control light, replicate 2": 1.00e6}
{"target": "CG3306", "reagent": 1, "firefly reporter light, replicate 1": 8.74e5, "firefly reporter light, replicate 2": 8.26e5, "Renilla control light, replicate 1": 9.91e5, "Renilla control light, replicate 2": 1.05e6}
{"target": "mRpS10", "reagent": 1, "firefly reporter light, replicate 1": 1.53e5, "firefly reporter light, replicate 2": 1.83e5, "Renilla control light, replicate 1": 3.02e6, "Renilla control light, replicate 2": 3.04e6}
{"target": "Brr2", "reagent": 1, "firefly reporter light, replicate 1": 15778, "firefly reporter light, replicate 2": 14063, "Renilla control light, replicate 1": 2.03e5, "Renilla control light, replicate 2": 2.00e5}
{"target": "CG33290", "reagent": 1, "firefly reporter light, replicate 1": 1.96e5, "firefly reporter light, replicate 2": 2.43e5, "Renilla control light, replicate 1": 5.28e5, "Renilla control light, replicate 2": 5.55e5}
{"target": "CG33290", "reagent": 2, "firefly reporter light, replicate 1": 2.14e5, "firefly reporter light, replicate 2": 2.32e5, "Renilla control light, replicate 1": 5.69e5, "Renilla control light, replicate 2": 6.11e5}
